# The supplement of paper PMC10849652
# The chains behind the UniProt entries cited, without tags or fusion partners. Where a name states a change or a piece, a line headed by the entry shows the natural chain unless it says otherwise.
# UniProt Q9Y5S1: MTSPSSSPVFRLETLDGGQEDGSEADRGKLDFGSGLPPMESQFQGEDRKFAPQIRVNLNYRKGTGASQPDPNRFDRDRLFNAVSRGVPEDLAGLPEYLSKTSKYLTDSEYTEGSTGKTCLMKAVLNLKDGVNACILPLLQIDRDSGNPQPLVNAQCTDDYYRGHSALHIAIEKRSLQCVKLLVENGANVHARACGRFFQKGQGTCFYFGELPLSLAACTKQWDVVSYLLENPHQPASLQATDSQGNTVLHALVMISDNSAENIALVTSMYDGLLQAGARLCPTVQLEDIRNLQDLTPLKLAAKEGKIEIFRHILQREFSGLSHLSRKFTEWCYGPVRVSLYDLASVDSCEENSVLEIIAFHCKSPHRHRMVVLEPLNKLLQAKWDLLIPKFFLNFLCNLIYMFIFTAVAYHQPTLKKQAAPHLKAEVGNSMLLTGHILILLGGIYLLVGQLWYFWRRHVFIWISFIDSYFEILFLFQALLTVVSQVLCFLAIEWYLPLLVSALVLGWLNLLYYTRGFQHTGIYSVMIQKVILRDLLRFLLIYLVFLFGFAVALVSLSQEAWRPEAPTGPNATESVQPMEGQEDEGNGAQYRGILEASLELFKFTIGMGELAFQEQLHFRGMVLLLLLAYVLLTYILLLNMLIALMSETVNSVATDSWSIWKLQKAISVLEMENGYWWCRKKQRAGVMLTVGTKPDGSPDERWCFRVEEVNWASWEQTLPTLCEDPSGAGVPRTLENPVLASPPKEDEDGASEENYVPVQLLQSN
# UniProt Q969E8: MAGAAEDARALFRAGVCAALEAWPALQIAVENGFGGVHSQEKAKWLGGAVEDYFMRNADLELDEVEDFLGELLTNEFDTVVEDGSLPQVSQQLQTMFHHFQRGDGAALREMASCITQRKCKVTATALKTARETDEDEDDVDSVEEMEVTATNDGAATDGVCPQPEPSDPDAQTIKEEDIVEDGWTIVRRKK
# UniProt Q15650: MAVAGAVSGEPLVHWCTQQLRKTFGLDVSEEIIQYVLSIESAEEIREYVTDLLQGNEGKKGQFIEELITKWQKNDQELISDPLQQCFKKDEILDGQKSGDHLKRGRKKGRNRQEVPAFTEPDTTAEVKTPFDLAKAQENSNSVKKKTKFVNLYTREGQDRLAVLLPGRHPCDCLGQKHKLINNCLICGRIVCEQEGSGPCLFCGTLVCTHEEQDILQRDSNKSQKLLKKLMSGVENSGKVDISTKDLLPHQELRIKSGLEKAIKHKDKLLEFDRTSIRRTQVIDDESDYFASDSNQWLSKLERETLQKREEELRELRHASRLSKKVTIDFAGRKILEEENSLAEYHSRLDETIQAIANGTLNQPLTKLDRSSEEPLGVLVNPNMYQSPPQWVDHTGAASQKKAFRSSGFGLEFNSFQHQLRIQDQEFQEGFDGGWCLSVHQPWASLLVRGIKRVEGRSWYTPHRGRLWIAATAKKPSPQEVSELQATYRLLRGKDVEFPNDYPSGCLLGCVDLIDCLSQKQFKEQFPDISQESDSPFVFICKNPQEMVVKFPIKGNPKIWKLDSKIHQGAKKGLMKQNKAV
# UniProt O75865, whole entry, looked up: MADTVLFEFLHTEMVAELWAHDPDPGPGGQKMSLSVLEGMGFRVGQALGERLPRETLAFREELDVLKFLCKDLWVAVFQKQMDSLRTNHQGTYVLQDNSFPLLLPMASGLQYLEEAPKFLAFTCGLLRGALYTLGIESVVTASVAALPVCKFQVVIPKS
# UniProt Q12931: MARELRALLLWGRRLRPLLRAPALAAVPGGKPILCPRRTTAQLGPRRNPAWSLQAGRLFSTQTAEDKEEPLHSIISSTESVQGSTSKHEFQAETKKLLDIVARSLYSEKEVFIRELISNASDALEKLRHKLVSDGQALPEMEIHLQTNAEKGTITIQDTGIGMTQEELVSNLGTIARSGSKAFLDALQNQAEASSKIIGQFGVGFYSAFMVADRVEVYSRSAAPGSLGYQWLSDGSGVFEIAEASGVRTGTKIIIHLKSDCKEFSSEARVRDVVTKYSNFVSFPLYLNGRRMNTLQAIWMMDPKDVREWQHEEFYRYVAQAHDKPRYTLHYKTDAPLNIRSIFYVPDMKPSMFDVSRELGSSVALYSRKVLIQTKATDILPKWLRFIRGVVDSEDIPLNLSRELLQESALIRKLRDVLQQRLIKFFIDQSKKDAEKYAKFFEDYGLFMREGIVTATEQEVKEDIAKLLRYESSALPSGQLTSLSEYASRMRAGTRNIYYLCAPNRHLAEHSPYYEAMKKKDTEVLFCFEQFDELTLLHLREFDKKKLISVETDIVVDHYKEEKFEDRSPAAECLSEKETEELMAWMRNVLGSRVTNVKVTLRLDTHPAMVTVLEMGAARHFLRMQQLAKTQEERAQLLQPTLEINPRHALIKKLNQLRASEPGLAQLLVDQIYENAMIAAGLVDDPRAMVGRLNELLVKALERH
# UniProt Q8N0Z6: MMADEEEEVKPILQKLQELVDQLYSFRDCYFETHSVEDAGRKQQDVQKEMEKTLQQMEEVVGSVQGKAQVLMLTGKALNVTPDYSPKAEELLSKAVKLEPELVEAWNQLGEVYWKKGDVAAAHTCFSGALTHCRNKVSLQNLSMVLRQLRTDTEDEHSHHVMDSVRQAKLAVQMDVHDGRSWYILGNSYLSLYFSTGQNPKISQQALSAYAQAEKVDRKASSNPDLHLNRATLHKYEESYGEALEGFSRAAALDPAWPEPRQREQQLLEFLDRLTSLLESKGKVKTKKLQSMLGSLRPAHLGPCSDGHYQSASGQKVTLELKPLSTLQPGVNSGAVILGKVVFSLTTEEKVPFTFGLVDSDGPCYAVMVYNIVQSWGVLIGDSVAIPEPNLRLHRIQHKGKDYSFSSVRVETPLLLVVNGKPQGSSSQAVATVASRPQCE
# UniProt O43715: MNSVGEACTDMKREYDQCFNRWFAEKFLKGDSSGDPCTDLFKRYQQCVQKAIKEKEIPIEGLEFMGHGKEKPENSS
# UniProt Q14669: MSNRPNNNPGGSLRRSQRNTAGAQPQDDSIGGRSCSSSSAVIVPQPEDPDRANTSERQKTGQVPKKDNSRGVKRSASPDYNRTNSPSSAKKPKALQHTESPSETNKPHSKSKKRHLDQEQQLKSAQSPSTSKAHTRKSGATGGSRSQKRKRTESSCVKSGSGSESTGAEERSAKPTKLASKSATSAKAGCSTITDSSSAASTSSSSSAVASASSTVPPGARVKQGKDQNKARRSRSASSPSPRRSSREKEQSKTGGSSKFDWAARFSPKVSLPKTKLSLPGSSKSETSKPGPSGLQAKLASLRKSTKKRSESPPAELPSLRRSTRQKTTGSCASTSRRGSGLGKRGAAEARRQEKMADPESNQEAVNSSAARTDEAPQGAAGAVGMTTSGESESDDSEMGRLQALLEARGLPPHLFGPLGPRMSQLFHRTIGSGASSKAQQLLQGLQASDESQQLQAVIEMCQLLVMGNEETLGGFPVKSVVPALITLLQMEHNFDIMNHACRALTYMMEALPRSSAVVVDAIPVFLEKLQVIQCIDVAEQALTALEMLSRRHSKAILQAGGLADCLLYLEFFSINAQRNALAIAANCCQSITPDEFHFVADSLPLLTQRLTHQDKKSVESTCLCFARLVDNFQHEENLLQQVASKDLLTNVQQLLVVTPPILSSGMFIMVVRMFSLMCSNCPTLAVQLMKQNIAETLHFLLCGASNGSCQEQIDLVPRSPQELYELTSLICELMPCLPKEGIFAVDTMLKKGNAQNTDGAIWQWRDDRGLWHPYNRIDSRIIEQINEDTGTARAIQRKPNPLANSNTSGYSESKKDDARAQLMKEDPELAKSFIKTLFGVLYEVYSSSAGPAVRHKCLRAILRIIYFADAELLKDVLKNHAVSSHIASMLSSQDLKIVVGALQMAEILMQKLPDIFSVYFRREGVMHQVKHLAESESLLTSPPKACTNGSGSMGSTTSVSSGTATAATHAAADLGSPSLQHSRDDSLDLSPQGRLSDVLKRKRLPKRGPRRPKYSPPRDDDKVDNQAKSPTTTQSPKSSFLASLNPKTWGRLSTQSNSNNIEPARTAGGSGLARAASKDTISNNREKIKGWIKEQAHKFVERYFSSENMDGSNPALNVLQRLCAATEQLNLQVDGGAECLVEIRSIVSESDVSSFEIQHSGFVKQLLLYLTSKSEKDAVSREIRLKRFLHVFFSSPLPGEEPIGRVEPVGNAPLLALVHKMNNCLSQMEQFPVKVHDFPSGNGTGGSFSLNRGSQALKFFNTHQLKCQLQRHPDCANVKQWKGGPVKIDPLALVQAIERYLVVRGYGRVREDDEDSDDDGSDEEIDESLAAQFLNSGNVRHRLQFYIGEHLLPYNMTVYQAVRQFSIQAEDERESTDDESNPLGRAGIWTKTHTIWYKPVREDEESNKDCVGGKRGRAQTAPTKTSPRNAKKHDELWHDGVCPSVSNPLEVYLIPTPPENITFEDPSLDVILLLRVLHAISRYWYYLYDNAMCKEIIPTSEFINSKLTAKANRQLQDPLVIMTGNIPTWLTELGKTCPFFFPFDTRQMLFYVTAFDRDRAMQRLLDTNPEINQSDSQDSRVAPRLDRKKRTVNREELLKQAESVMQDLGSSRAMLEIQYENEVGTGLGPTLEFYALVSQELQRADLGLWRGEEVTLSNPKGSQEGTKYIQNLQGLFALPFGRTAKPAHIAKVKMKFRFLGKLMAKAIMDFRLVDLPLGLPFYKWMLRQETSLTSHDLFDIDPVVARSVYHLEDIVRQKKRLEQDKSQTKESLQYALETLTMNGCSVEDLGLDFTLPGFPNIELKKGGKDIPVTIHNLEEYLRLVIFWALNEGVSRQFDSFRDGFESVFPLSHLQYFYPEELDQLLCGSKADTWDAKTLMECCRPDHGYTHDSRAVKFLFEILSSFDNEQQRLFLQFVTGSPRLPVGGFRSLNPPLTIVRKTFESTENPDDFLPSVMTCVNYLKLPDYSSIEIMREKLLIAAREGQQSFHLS
# UniProt Q96LD4: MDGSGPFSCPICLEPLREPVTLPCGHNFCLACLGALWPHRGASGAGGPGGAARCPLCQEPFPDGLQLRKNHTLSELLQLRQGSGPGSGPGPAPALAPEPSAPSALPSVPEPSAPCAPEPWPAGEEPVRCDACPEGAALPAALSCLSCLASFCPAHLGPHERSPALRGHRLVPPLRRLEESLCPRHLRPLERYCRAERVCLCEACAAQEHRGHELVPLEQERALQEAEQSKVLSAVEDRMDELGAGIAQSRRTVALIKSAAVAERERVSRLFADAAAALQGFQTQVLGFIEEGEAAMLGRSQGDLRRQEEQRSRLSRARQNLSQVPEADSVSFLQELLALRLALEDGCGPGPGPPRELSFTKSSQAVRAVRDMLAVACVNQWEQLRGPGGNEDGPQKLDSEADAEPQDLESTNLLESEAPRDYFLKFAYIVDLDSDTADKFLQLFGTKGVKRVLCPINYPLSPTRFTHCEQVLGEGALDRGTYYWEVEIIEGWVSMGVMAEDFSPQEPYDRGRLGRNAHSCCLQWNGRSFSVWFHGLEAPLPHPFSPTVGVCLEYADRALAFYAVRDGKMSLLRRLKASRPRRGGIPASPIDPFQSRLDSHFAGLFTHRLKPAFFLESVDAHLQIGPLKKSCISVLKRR
# UniProt Q9ULT0: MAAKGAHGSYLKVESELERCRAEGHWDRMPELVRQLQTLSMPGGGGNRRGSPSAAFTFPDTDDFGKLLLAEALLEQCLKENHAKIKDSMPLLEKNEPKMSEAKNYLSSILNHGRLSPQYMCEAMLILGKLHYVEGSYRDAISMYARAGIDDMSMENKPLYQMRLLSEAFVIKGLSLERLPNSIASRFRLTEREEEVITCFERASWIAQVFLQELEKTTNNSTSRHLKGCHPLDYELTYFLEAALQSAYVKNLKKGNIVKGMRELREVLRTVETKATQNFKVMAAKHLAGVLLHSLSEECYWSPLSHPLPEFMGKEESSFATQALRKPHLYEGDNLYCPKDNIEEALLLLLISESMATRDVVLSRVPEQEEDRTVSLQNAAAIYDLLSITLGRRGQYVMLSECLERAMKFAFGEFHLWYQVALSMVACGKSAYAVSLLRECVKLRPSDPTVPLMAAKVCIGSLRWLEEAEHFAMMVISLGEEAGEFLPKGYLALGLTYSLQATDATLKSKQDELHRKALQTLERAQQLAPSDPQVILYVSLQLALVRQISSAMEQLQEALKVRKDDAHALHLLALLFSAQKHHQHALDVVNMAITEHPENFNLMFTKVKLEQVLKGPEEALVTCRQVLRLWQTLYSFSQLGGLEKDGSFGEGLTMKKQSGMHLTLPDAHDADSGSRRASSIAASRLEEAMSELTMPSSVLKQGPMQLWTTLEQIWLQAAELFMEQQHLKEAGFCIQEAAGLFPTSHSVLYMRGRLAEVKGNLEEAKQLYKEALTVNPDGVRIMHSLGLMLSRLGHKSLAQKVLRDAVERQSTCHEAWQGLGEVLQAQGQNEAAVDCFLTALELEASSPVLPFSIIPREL
# Some of the results follow.
# Legend:
# Experiment in all cases: log2 fold change, soluble protein after heating vs DMSO (PISA); higher = thermal stabilisation; K562 lysate, 10 uM; active = over 0.2 and 3.5 SD of the protein, either way, in both replicates (recomputed)
# nilotinib = compound: Cc1cn(-c2cc(NC(=O)c3ccc(C)c(Nc4nccc(-c5cccnc5)n4)c3)cc(C(F)(F)F)c2)cn1 [nilotinib]
# Summary of the method: (§1)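 Pellets of K562 cells were dounce-homogenised in PBS pH 7.4 with 1 mM MgCl2, and the crude extract was held at 1 mg/mL protein for a 30 min treatment with 10 μM compound. Aliquots were heated for 3 min over 48°C-58°C and pooled before NP-40 was added to 0.5% at 4°C. The supernatant from 21,000xg for 90 min was quantified by TMTpro 16plex LC-MS/MS with channel sums equalised. Values are reported from duplicates as log-two fold change in thermal stability relative to solvent controls.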
# [1] = compound: Cc1nc(Nc2n[nH]c3c2CN(C(=O)N[C@H](CN(C)C)c2ccccc2)C3(C)C)c2sccc2n1
# Summary of the method: as §1
# dasatinib = compound: Cc1nc(Nc2ncc(C(=O)Nc3c(C)cccc3Cl)s2)cc(N2CCN(CCO)CC2)n1 [dasatinib]
# Summary of the method: as §1
# [2] = compound: Cc1ncc(-c2ccnc(Nc3ccc(S(C)(=O)=O)cc3)n2)n1C(C)C
# Summary of the method: as §1
# [3] = compound: Cn1cc(-c2ccc3c(c2)CCN3C(=O)Cc2cccc(C(F)(F)F)c2)c2c(N)ncnc21
# Summary of the method: as §1
# quisinostat = compound: Cn1cc(CNCC2CCN(c3ncc(C(=O)NO)cn3)CC2)c2ccccc21 [quisinostat]
# Summary of the method: as §1
# tipifarnib = compound: Cn1cncc1[C@@](N)(c1ccc(Cl)cc1)c1ccc2c(c1)c(-c1cccc(Cl)c1)cc(=O)n2C [tipifarnib]
# Summary of the method: as §1
# [4] = compound: NC(=O)Nc1cc(-c2cccc(F)c2)sc1C(=O)N[C@H]1CCCNC1
# Summary of the method: as §1
# [5] = compound: NC(=O)c1cnc(N[C@@H]2CCCC[C@@H]2N)nc1Nc1cccc(-n2nccn2)c1
# Summary of the method: as §1
# [6] = compound: NC1(c2ccc(-c3nc4ccn5c(=O)[nH]nc5c4cc3-c3ccccc3)cc2)CCC1
# Summary of the method: as §1
# [7] = compound: NCC(=O)Nc1ccc(-n2nc(C(F)(F)F)cc2-c2ccc3c(ccc4ccccc43)c2)cc1
# Summary of the method: as §1
# vorinostat = compound: O=C(CCCCCCC(=O)Nc1ccccc1)NO [vorinostat]
# Summary of the method: as §1
# silmitasertib = compound: O=C(O)c1ccc2c(c1)nc(Nc1cccc(Cl)c1)c1ccncc12 [silmitasertib]
# Summary of the method: as §1
# [8] = compound: O=C1NC(=O)C(c2cnc3ccccn23)=C1c1cn2c3c(cc(F)cc13)CN(C(=O)N1CCCCC1)CC2
# Summary of the method: as §1
# entospletinib = compound: c1cn2cc(-c3ccc4cn[nH]c4c3)nc(Nc3ccc(N4CCOCC4)cc3)c2n1 [entospletinib]
# Summary of the method: as §1
Target,log2 fold change (nilotinib),log2 fold change [1],log2 fold change (dasatinib),log2 fold change [2],log2 fold change [3],log2 fold change (quisinostat),log2 fold change (tipifarnib),log2 fold change [4],log2 fold change [5],log2 fold change [6],log2 fold change [7],log2 fold change (vorinostat),log2 fold change (silmitasertib),log2 fold change [8],log2 fold change (entospletinib)
TRMT1L (UniProt Q7Z2T5),inactive: -0.017,inactive: 0.002,inactive: -0.021,inactive: 0.095,inactive: -0.002,inactive: -0.043,inactive: -0.009,inactive: 0.029,inactive: 0.027,inactive: -0.018,inactive: -0.014,inactive: -0.175,inactive: 0.028,inactive: -0.03,inactive: 0.016
TSTA3 (UniProt Q13630),inactive: -0.026,inactive: 0.004,inactive: 0.027,inactive: -0.053,inactive: -0.008,inactive: 0.161,inactive: 0.046,inactive: -0.005,inactive: 0.014,inactive: 0.026,inactive: 0.035,inactive: -0.078,inactive: 0,inactive: 0.044,inactive: 0.022
TRPV2 (UniProt Q9Y5S1),inactive: 0.018,inactive: 0.011,inactive: -0.06,inactive: 0.034,inactive: -0.029,inactive: 0.065,inactive: -0.069,inactive: -0.036,inactive: -0.005,inactive: 0.014,inactive: -0.009,inactive: 0.007,inactive: 0,inactive: -0.021,inactive: -0.007
TSR2 (UniProt Q969E8),inactive: 0.003,inactive: 0.033,inactive: 0.001,inactive: -0.028,inactive: -0.04,inactive: 0.007,inactive: 0.027,inactive: -0.074,inactive: -0.006,inactive: 0.006,inactive: 0.013,inactive: 0.007,inactive: 0.009,inactive: -0.035,inactive: 0.003
TRIP4 (UniProt Q15650),inactive: -0.03,inactive: 0.032,inactive: -0.056,inactive: 0.021,inactive: 0.002,inactive: -0.038,inactive: 0.012,inactive: 0.004,inactive: 0.002,inactive: -0.057,inactive: -0.031,inactive: -0.139,inactive: 0.011,inactive: -0.024,inactive: 0
TRAPPC6A isoform 2 (UniProt O75865),inactive: 0.015,inactive: -0.09,inactive: -0.026,inactive: 0.02,inactive: -0.058,inactive: 0.006,inactive: 0.048,inactive: -0.048,inactive: -0.008,inactive: 0.076,inactive: -0.048,inactive: -0.038,inactive: 0.013,inactive: -0.002,inactive: -0.157
TRAP1 (UniProt Q12931),inactive: 0.019,inactive: -0.007,inactive: -0.023,inactive: 0.012,inactive: 0.026,inactive: 0.087,inactive: 0.001,inactive: -0.014,inactive: -0.01,inactive: 0.042,inactive: 0.008,inactive: 0.039,inactive: 0.008,inactive: 0.005,inactive: -0.014
TTC5 (UniProt Q8N0Z6),inactive: 0.012,inactive: -0.064,inactive: 0,inactive: -0.016,inactive: 0.047,inactive: -0.084,inactive: 0.01,inactive: 0,inactive: -0.007,inactive: 0.001,inactive: -0.003,active: -0.257,inactive: -0.029,inactive: -0.018,inactive: 0.051
TRDMT1 (UniProt O14717),inactive: 0,inactive: 0.019,inactive: 0.096,inactive: -0.029,inactive: -0.027,inactive: -0.153,inactive: -0.005,inactive: 0.086,inactive: 0.017,inactive: -0.105,inactive: 0.084,inactive: -0.038,inactive: 0.007,inactive: 0.154,inactive: 0.073
TTL (UniProt Q8NG68),inactive: -0.045,inactive: -0.082,inactive: -0.049,inactive: -0.062,inactive: 0.056,inactive: -0.115,inactive: -0.008,inactive: 0.017,inactive: 0.018,inactive: 0.03,inactive: -0.027,active: -0.376,inactive: 0.021,inactive: 0.057,inactive: 0.138
TRMT2B (UniProt Q96GJ1),inactive: -0.08,inactive: -0.002,inactive: -0.123,inactive: 0.065,inactive: 0.041,inactive: 0.017,inactive: 0.039,inactive: -0.004,inactive: -0.012,inactive: 0.018,–,inactive: -0.242,inactive: 0.04,inactive: -0.003,–
TRIAP1 (UniProt O43715),inactive: 0.033,inactive: 0.02,inactive: 0.031,inactive: 0.117,inactive: -0.067,inactive: -0.082,inactive: 0.029,inactive: 0.037,inactive: -0.041,inactive: 0.088,inactive: 0.01,inactive: 0.077,inactive: -0.108,inactive: 0.129,inactive: -0.079
TRIP12 isoform 2 (UniProt Q14669),inactive: -0.019,inactive: 0.011,inactive: 0.003,inactive: 0.001,inactive: 0.039,inactive: -0.065,inactive: -0.017,inactive: 0.057,inactive: 0.016,inactive: 0.003,inactive: -0.057,active: -0.266,inactive: 0.03,inactive: 0.005,inactive: -0.002
TRIM56 (UniProt Q9BRZ2),inactive: 0.033,inactive: 0.031,inactive: -0.073,inactive: -0.006,inactive: 0.017,inactive: -0.043,inactive: -0.048,inactive: 0.005,inactive: -0.01,inactive: 0.007,inactive: -0.022,active: -0.428,inactive: -0.043,inactive: -0.016,inactive: -0.004
TRPM7 (UniProt Q96QT4),inactive: -0.146,inactive: -0.097,inactive: 0.022,inactive: -0.001,inactive: 0.056,inactive: -0.004,inactive: 0.108,inactive: 0.327,inactive: 0.206,–,inactive: 0.046,–,–,inactive: -0.05,inactive: -0.043
TTC19 (UniProt Q6DKK2),inactive: 0.035,inactive: -0.095,inactive: 0.006,inactive: 0.001,inactive: 0.02,inactive: -0.095,inactive: -0.038,inactive: -0.004,inactive: 0.034,inactive: -0.023,inactive: 0.02,inactive: 0.03,inactive: 0.015,inactive: -0.009,inactive: -0.025
TRIM47 (UniProt Q96LD4),inactive: 0,inactive: 0.118,inactive: 0.209,inactive: -0.084,inactive: -0.032,–,inactive: 0.145,–,inactive: 0.062,inactive: 0.152,inactive: 0.084,inactive: -0.254,inactive: 0.211,–,inactive: 0.116
TRIM23 (UniProt P36406),inactive: 0.107,inactive: -0.004,inactive: -0.005,inactive: -0.046,inactive: 0.136,inactive: -0.044,inactive: 0.023,inactive: 0.005,inactive: 0.072,inactive: 0.037,inactive: 0.064,inactive: 0.073,inactive: -0.03,inactive: -0.02,inactive: -0.032
TRIM58 (UniProt Q8NG06),inactive: -0.01,inactive: 0.065,inactive: 0.042,inactive: -0.063,inactive: -0.016,inactive: -0.032,inactive: 0,inactive: 0.075,–,inactive: 0.065,inactive: 0.011,inactive: -0.157,inactive: 0.03,inactive: 0.005,inactive: -0.029
TTF2 (UniProt Q9UNY4),inactive: -0.008,inactive: -0.062,inactive: -0.012,inactive: -0.023,inactive: 0.018,inactive: -0.042,inactive: 0.004,inactive: 0.02,inactive: 0.019,inactive: -0.067,inactive: 0.02,active: -0.317,inactive: 0.008,inactive: -0.032,inactive: -0.074
TTC7A isoform 4 (UniProt Q9ULT0),inactive: 0.008,inactive: -0.153,–,inactive: -0.17,–,–,inactive: 0.17,–,–,–,–,–,–,–,–

# Single records, from the list above. Values in the order: log2 fold change (nilotinib)	log2 fold change [1]	log2 fold change (dasatinib)	log2 fold change [2]	log2 fold change [3]	log2 fold change (quisinostat)	log2 fold change (tipifarnib)	log2 fold change [4]	log2 fold change [5]	log2 fold change [6]	log2 fold change [7]	log2 fold change (vorinostat)	log2 fold change (silmitasertib)	log2 fold change [8]	log2 fold change (entospletinib)
# TRIM23 (UniProt P36406) reads inactive: 0.107	inactive: -0.004	inactive: -0.005	inactive: -0.046	inactive: 0.136	inactive: -0.044	inactive: 0.023	inactive: 0.005	inactive: 0.072	inactive: 0.037	inactive: 0.064	inactive: 0.073	inactive: -0.03	inactive: -0.02	inactive: -0.032
# TTC19 (UniProt Q6DKK2) reads inactive: 0.035	inactive: -0.095	inactive: 0.006	inactive: 0.001	inactive: 0.02	inactive: -0.095	inactive: -0.038	inactive: -0.004	inactive: 0.034	inactive: -0.023	inactive: 0.02	inactive: 0.03	inactive: 0.015	inactive: -0.009	inactive: -0.025
